These results are taken from PubChem BioAssay AID1487 (National Center for Advancing Translational Sciences (NCATS), 2009).

Each structure is given as a SMILES string. Several values for one entry are separate records, joined by “and”; a condition that tells them apart may be missing. Equal entries are not always repeated. The list shows a part of the results. These are further read-outs of the screen, such as a control signal, another cell line or another target. No call is given for them. Compounds called inactive in the main read-out are mostly missing here. The note in brackets gives the kind of curve behind each potency; many fits are weak.

This assay in a line: qHTS Assay for Modulators of Lamin A Splicing. The conditions noted are these: HeLa LMNA splicing GFP/RFP minigene ratio, 48 h. Summed up:
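S3 HeLa stable clones carrying a lamin A-EGFP splicing minigene plus DsRed2 were seeded at 600 cells/well in Opti-MEM with 2% FBS, pin-dosed and incubated 48 h at 37°C. Acumen cytometry (488 nm) gave the GFP/RFP total-intensity ratio.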
A general note: In qHTS, concentration-response curves come from the screen itself.

Setting [1] is: measured here: GFP splicing reporter channel.
[2] abbreviates: measured here: RFP viability control channel.

For orientation: AC50 means the concentration at which the activity in the assay is half-maximal. Take `CCN(CC)S(=O)(=O)c1cc(C(=O)OCC(=O)c2ccc3c(c2)NC(=O)CO3)ccc1Cl`: the AC50 is 3.98 µM [rising, single point] under setting [1] and 10 µM [rising, partial curve] under setting [2].

`COc1ccc(C2CC(c3c(O)cc(C)oc3=O)=NCCS2)c(OC)c1` (stereo not drawn): the AC50 reads like this: under setting [1], 15.8 µM [falling, partial curve, poor fit]; under setting [2], 4.47 µM [rising, partial curve].

Take `CCC(=O)c1c(O)cc(O)cc1O`: the concentration at half-maximal activity (AC50) under setting [1] is 22.4 µM [falling, single point].

Consider `Fc1ccc(F)c(C2=NNC(=Nc3ccccc3F)SC2)c1`, for which the concentration at half-maximal activity (AC50) was 3.55 µM [rising, partial curve, poor fit] under setting [1] and 15.8 µM [rising, partial curve, poor fit] under setting [2].

For `O=C(Nc1nc(-c2ccccn2)cs1)c1ccc(Cl)s1`, under setting [2], the concentration at half-maximal activity (AC50) is 0.891 µM [rising, full curve].

Take `Cc1ccc(C(=O)N2CCc3ccccc32)cc1NC(=O)c1ccco1`: the AC50 under setting [2] is 1.26 µM [falling, full curve].

As for `COc1ccc(CNc2oc(-c3ccc(COc4ccc(OC)cc4)o3)nc2C#N)cc1`, the concentration at half-maximal activity (AC50) runs as follows: under setting [1], 5.01 µM [rising, full curve]; under setting [2], 8.91 µM [rising, partial curve].

As for `S=C(NCc1cccnc1)Nc1ccc(Cl)c(Cl)c1`, the AC50 is, setting by setting: under setting [1], 10 µM [rising, partial curve]; under setting [2], 12.6 µM [rising, partial curve].

On to `O=C(CSc1nc2ccncc2[nH]1)Nc1ccccc1C(F)(F)F`, for which the AC50 was 11.2 µM [rising, partial curve, poor fit] under setting [1] and 15.8 µM [rising, partial curve] under setting [2].

Take `Cc1c(NC(NC(=O)CC(C)C)C(Cl)(Cl)Cl)c(=O)n(-c2ccccc2)n1C` (stereo not drawn): the AC50 under setting [1] was 20 µM [falling, partial curve, poor fit] and the AC50 under setting [2] is 0.0178 µM [falling, full curve].

Consider `OCC1O[C@H](O)C(Cl)C(O)C1O` (stereo partly drawn), for which the concentration at half-maximal activity (AC50) under setting [2] is 0.01 µM [rising, full curve, poor fit].

Regarding `CCOC(=O)c1oc2ccccc2c1NC(=O)c1cccc(OC)c1OC`, the AC50 under setting [2] is 35.5 µM [rising, single point].

For the compound `COc1ccc(CCNc2cc(N3CCN(C(=O)c4ccc(C)cc4)CC3)ccc2[N+](=O)[O-])cc1OC`, the AC50 under setting [2] is 0.794 µM [rising, full curve].

`O=C(CSc1ccc2c(c1)OCCO2)Nc1ccc(Cl)cn1`: the half-maximal activity concentration (AC50) is, setting by setting: under setting [1], 35.5 µM [rising, single point]; under setting [2], 35.5 µM [rising, single point].

`c1ccc2c(c1)OCC(c1csc3ncnc(N4CCOCC4)c13)O2` (stereo not drawn): the half-maximal activity concentration (AC50) under setting [2] is 35.5 µM [falling, partial curve, poor fit].

In the case of `Cc1ccc(-c2nn(-c3ccccc3)cc2C=C2C(=O)CC(C)(C)CC2=O)cc1`, the AC50 under setting [1] was 11.2 µM [falling, partial curve, poor fit].

For `Cc1ccc2cc(COC(=O)C3CCCO3)c(=O)[nH]c2c1` (stereo not drawn), the AC50 is 11.2 µM [falling, partial curve, poor fit] under setting [1] and 4.47 µM [falling, partial curve, poor fit] under setting [2].

As to `CCCCCCCCCCCNC(=O)c1ccoc1C`, the half-maximal activity concentration (AC50) is 15.8 µM [rising, single point] under setting [1] and 22.4 µM [rising, single point] under setting [2].

Take `CSc1nc(Oc2ccc3ccccc3c2)c2sccc2n1`: the AC50 under setting [1] was 35.5 µM [falling, single point].

As for `CCCN1CCc2nc(N3CCN(c4ncccn4)CC3)ncc2C1`, the AC50 under setting [1] is 0.631 µM [rising, full curve, poor fit] and the concentration at half-maximal activity (AC50) under setting [2] is 0.794 µM [rising, full curve, poor fit].

For the compound `Cc1nc2cc(-c3ccccc3)nn2c(C)c1CCC(=O)NC(C)c1ccc2c(c1)OCCO2` (stereo not drawn), the AC50 by setting is: under setting [1], 35.5 µM [rising, single point]; under setting [2], 35.5 µM [rising, single point].

`COc1ccc(CCN2C(=O)C3C4C=CC(C3C2=O)C2C(=O)N(CCc3ccc(OC)c(OC)c3)C(=O)C42)cc1OC` (stereo not drawn): the concentration at half-maximal activity (AC50) by setting is: under setting [1], 7.94 µM [rising, partial curve]; under setting [2], 5.01 µM [rising, full curve].

In the case of `Cc1sc(NC(=O)Cc2ccc3c(c2)OCO3)nc1-c1ccc2c(c1)CCN2C(=O)c1ccc(F)cc1`, the AC50 was 5.62 µM [rising, partial curve] under setting [1] and 6.31 µM [rising, full curve] under setting [2].

With `Cc1ccc2c(=O)c(C(=O)c3ccc(F)cc3)cn(CC(=O)NCCc3ccccc3)c2n1`, the AC50 under setting [1] is 11.2 µM [falling, partial curve, poor fit].

On to `O=[N+]([O-])c1ccc(C(=S)N2CCC(Cc3ccccc3)CC2)cc1`, for which the concentration at half-maximal activity (AC50) is 10 µM [rising, partial curve, poor fit] under setting [1] and 12.6 µM [rising, partial curve] under setting [2].

As for `O=[N+]([O-])c1ccc(O)c(/C=N/Nc2nc3ccccc3[nH]2)c1`, the AC50 under setting [2] was 3.16 µM [rising, full curve].

On to `CCCC(=O)Nc1ccc(C(=O)/C=C/c2ccc(SC)cc2)cc1`, for which the AC50 runs as follows: under setting [1], 14.1 µM [falling, single point]; under setting [2], 20 µM [falling, partial curve].

Take `O=C1CNC(=O)N1CC(O)Cn1c2ccccc2c2ccccc21` (stereo not drawn): the AC50 under setting [2] is 0.0447 µM [rising, full curve, poor fit].

For `CC(Sc1nc2c(cc1C#N)CCCCC2)C(=O)O` (stereo not drawn), the concentration at half-maximal activity (AC50) under setting [1] is 39.8 µM [falling, partial curve, poor fit].

As to `Cc1cccc(Oc2ccc(S(=O)(=O)N3CCCCC3)cc2N)c1`, the half-maximal activity concentration (AC50) under setting [1] is 17.8 µM [falling, single point].

As for `O=S(=O)(c1cccs1)N1CCN(CC(O)COc2cc(Cl)ccc2Cl)CC1` (stereo not drawn), the half-maximal activity concentration (AC50) under setting [1] is 35.5 µM [rising, single point] and the half-maximal activity concentration (AC50) under setting [2] was 0.794 µM [rising, full curve, poor fit].

Turning to `Cn1cc([N+](=O)[O-])c(C(=O)Nc2ccn(Cc3c(F)c(F)cc(F)c3F)n2)n1`, the concentration at half-maximal activity (AC50) under setting [1] was 35.5 µM [falling, single point].

On to `COc1ccc(/C=C2/CCc3ccccc3C2=O)cc1OC`, for which the AC50 is 6.31 µM [rising, partial curve, poor fit] under setting [1] and 22.4 µM [rising, partial curve] under setting [2].

On to `O=C(CCn1c(=S)[nH]c2ccccc2c1=O)NCCCN1CCCC1=O`, for which the AC50 under setting [1] is 0.631 µM [falling, full curve, poor fit] and the concentration at half-maximal activity (AC50) under setting [2] was 0.631 µM [falling, full curve, poor fit].

Turning to `CCCCC(=O)Nc1ccc(NC(=S)NC(=O)CC(C)C)cc1OC`, the AC50 reads like this: under setting [1], 0.158 µM [falling, full curve, poor fit]; under setting [2], 0.0126 µM [falling, full curve, poor fit].

For `Clc1ccc(CSc2nnc(-c3ccccn3)n2Cc2ccco2)c(Cl)c1`, the AC50 runs as follows: under setting [1], 31.6 µM [rising, single point]; under setting [2], 35.5 µM [rising, single point].

On to `CC(C)(C)[C@]1(O)CCN2C[C@H]3c4ccccc4CCc4cccc(c43)[C@@H]2C1`, for which the half-maximal activity concentration (AC50) was 0.178 µM [falling, full curve] under setting [1] and 35.5 µM [rising, single point] under setting [2].

With `CCOC(=O)c1sc2nc(CC(=O)OC)nc(N3CCN(c4ccccn4)CC3)c2c1C`, the AC50 was 35.5 µM [rising, single point] under setting [1] and 35.5 µM [rising, single point] under setting [2].

Regarding `COc1cccc(C2=CC(c3ccccc3F)n3c(nc4ccccc43)N2)c1` (stereo not drawn), under setting [2], the concentration at half-maximal activity (AC50) was 0.158 µM [falling, full curve, poor fit].

For the compound `COc1ccccc1OC(C)C(=O)Nc1nc(-c2ccc(S(=O)(=O)N3CCOCC3)cc2)cs1` (stereo not drawn), under setting [2], the AC50 was 12.6 µM [rising, single point].

Regarding `COc1ccc(S(=O)(=O)NN(C)c2nc(C(F)(F)F)nc3ccccc23)cc1`, the AC50 under setting [2] is 7.94 µM [falling, partial curve].

For the compound `Cc1[nH]c(=S)sc1Cc1ccc(Cl)c(Cl)c1`, the AC50 runs as follows: under setting [1], 15.8 µM [rising, single point]; under setting [2], 25.1 µM [rising, single point].

On to `O=C(COc1cccc2ccccc12)NCc1cccnc1`, for which, under setting [1], the half-maximal activity concentration (AC50) was 0.0112 µM [falling, full curve, poor fit].

For `COCC(=O)N1c2nc(-c3ccco3)nn2C2(CCCCC2)[C@@H]2CCCC[C@@H]21`, the half-maximal activity concentration (AC50) under setting [2] is 14.1 µM [falling, partial curve, poor fit].

Turning to `CCc1ccc2nc(N3C(=O)C(O)=C(C(=O)c4ccco4)C3c3cccs3)sc2c1` (stereo not drawn), the half-maximal activity concentration (AC50) under setting [2] is 35.5 µM [rising, single point].

Take `CC(C)[C@H](NC(=O)c1cccc(S(=O)(=O)N2CCOCC2)c1)C(=O)Nc1nc2ccccc2s1`: the half-maximal activity concentration (AC50) under setting [2] is 22.4 µM [rising, partial curve].

`COc1ccc(C2=C(CN(C)C)C(c3ccccc3)c3ccccc3O2)cc1` (stereo not drawn): the AC50 runs as follows: under setting [1], 1.58 µM [falling, full curve, poor fit]; under setting [2], 4.47 µM [falling, partial curve] and 35.5 µM [rising, single point].

In the case of `CCOC(=O)c1c(N2C(=O)CC(Sc3ccccc3C(=O)O)C2=O)sc2c1CCCC2` (stereo not drawn), the AC50 under setting [1] was 12.6 µM [falling, partial curve, poor fit] and the AC50 under setting [2] was 10 µM [falling, partial curve, poor fit].

As to `COc1ccc(S(=O)(=O)N2CCN(Cc3cccc(Cl)c3)CC2)cc1`, under setting [2], the half-maximal activity concentration (AC50) is 31.6 µM [rising, single point].

Take `Cc1cccc(Oc2ncnc(N)c2[N+](=O)[O-])c1`: the AC50 under setting [2] is 12.6 µM [rising, partial curve].

With `CCOc1ccccc1NC(=O)CN1C=NS(=O)(=O)c2ccccc21`, the AC50 is 0.00447 µM [rising, full curve, poor fit] under setting [1] and 2.51 µM [rising, full curve, poor fit] under setting [2].
